{
  "source": "paper PMC7787731",
  "about": "“Synthesis and Characterization of New Dihydronaphthalene Candidates as Potent Cytotoxic Agents against MCF-7 Human Cancer Cells” (BioMed Research International, 2020)",
  "test_system": "MCF-7 (human breast adenocarcinoma) cell lines",
  "assay": "In vitro cytotoxicity MTT assay against breast cancer MCF-7 cells",
  "details": "read-out: IC50 (μM) MCF-7, 0.39-100 μM, 3 days, mean ± SD of three replicates",
  "data": [
    {"smiles": "CN[C@@H]1C[C@H]2O[C@@](C)([C@@H]1OC)n1c3ccccc3c3c4c(c5c6ccccc6n2c5c31)C(=O)NC4", "note": "[Staurosporin, reference compound]", "values": [
      {"measurement": "IC50", "value": 6.08, "unit": "µM"}
    ]}
  ]
}
